Source: patent publication US9340582B2 (NOVARTIS AG, priority 2013, dated 2016)

Columns and labels:
[1] = general procedure: Fmoc solid-phase peptide synthesis; Rink-Amide-AM-PS resin; settings: whole synthesis, scale 0.100 mmol, TFA salts; acetate salt by ion exchange
[2] = general procedure: Fmoc solid-phase peptide synthesis; 2-chlorotrityl chloride-PS-resin (C-terminal acids); Fmoc Rink-Amide-AM-PS-resin (amides); BAL-AM-PS-resin loaded with a; settings: late stage modification step, TFA salts; acetate salt by ion exchange

| Substance | isolated mass [1] [mg] | step yield [2] [%] |
| --- | --- | --- |
| [pGlu]RPRLCHKGP[Nle]CF-NH2 (cysteine pairing not given here) | 50.5 |  |
| [pGlu]RPRLCHKGP[Nle]CF-OH (cysteine pairing not given here) |  | 13.4 |
| pE-R-P-R-L-C*-H-N^6-[[(1α,8α,9α)-bicyclo[6.1.0]non-4-yn-9-ylmethoxy]carbonyl]-K-G-P-Nle-C*-F-OH(Disulfide C^6-C^12) |  | 61 |

Square brackets hold non-standard residues; d marks the D form. pGlu = O=C1CC[C@@H](C(=O)O)N1; Nle = CCCC[C@H](N)C(=O)O
